Assay results as given in publication PMC6997364.
Like-named read-outs stand apart in the source and are kept apart here. These are yes or no findings as the source states them, for the method shown. Binding seen in cells or lysates may run through a third protein. Some binding calls cover weakened binding; strength is not graded here. For part of these data: Tags and fused reporters may be left off the sequences shown. One block for each molecule: values may come before it.

Key:
Gyp5-Myc (S. cerevisiae) [1] = target: T1, Gyp5-Myc (S. cerevisiae) (UniProt Q12344); assay: co-IP; rvs167Δrvs161Δ cells synchronised by α-factor and harvested when small-budded cells reached 80%; same lysis and precipitation as for log-phase cells
T1 sequence: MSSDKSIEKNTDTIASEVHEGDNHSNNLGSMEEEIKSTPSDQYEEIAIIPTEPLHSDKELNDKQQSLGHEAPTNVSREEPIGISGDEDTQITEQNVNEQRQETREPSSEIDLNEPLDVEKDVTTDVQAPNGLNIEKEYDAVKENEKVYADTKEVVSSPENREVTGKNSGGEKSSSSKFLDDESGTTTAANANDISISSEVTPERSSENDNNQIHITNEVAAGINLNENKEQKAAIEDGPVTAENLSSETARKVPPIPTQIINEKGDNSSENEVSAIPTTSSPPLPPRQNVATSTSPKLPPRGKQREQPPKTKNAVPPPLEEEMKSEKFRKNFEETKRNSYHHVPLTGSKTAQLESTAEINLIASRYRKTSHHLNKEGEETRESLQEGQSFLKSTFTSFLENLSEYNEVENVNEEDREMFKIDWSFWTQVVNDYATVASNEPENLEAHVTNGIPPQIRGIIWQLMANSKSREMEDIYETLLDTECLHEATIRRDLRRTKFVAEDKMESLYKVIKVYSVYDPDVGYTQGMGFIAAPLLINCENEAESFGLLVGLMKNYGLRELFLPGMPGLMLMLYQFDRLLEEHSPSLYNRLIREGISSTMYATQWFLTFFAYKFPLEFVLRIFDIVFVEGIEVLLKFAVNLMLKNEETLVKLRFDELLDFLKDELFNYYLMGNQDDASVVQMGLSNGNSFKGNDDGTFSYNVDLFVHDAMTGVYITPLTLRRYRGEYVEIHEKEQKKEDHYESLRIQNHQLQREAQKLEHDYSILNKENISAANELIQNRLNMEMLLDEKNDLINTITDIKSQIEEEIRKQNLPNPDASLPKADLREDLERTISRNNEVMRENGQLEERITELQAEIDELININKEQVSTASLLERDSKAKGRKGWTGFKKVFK

[2] = target: T2, VSV-Rvs161 (S. cerevisiae) (UniProt P25343); assay: as above
T2 sequence: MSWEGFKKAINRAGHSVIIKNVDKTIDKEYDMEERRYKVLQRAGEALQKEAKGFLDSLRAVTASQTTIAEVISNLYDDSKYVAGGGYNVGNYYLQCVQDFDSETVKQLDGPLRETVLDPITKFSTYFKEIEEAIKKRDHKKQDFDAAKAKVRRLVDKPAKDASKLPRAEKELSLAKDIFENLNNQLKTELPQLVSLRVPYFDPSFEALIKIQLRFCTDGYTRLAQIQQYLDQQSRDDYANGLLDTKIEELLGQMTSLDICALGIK

[3] = target: VSV-Rvs167 (S. cerevisiae) (UniProt P39743); assay: co-IP; total extracts of log-phase yeast cells co-expressing the tagged proteins (rvs167Δrvs161Δ, rvs167Δgvp36Δ, rvs161Δgvp36Δ, rvs167Δ, rvs167Δrvs161Δgvp36Δ or diploid cells); lysis buffer 20 mM Tris-HCl pH 7.5, 100 mM NaCl, 1 mM EDTA, 0.5% Triton X-100; anti-Myc, anti-HA, anti-GFP or anti-VSV antibody and protein G-agarose, 4 °C; washes up to 300 mM NaCl
Gyp5-Myc (S. cerevisiae) [4] = target: T1, Gyp5-Myc (S. cerevisiae); assay: as above
Gyl1-HA (S. cerevisiae) = target: T3, Gyl1-HA (S. cerevisiae) (UniProt Q04322); assay: as above
T3 sequence: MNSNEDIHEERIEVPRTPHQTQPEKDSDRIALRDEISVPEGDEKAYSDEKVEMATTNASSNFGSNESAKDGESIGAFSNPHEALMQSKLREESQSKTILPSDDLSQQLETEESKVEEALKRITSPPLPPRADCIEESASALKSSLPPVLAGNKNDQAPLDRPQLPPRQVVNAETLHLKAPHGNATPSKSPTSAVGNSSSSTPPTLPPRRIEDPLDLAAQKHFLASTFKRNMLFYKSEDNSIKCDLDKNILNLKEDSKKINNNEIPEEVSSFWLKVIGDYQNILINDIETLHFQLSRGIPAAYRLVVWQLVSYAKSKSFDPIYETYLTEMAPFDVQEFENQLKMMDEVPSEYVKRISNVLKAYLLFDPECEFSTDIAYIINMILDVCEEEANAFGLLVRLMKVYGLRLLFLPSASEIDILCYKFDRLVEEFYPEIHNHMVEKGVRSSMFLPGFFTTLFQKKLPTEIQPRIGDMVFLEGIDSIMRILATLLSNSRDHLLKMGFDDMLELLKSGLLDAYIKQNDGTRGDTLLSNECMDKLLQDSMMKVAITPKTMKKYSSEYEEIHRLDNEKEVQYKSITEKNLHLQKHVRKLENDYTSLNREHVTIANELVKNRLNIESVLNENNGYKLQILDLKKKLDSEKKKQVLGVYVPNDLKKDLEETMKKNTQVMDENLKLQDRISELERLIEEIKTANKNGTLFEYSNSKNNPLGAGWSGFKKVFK

[5] = target: GFP-Rvs167 (S. cerevisiae) (UniProt P39743); assay: co-IP; rvs167Δrvs161Δ cells synchronised by α-factor and harvested when small-budded cells reached 80%; same lysis and precipitation as for log-phase cells
[6] = target: Gyl1 fused with the VN or VC part of Venus YFP (S. cerevisiae) (UniProt Q04322); assay: split reporter; BiFC in living diploid yeast cells, scored only at the tip of small buds (ratio of bud width to bud neck width ≤ 1)
[7] = target: VSV-Rvs167 (S. cerevisiae) (UniProt P39743); assay: co-IP; total extracts of log-phase yeast cells co-expressing the tagged proteins (rvs167Δrvs161Δ, rvs167Δgvp36Δ, rvs161Δgvp36Δ, rvs167Δ, rvs167Δrvs161Δgvp36Δ or diploid cells); lysis buffer 20 mM Tris-HCl pH 7.5, 100 mM NaCl, 1 mM EDTA, 0.5% Triton X-100; anti-Myc, anti-HA, anti-GFP or anti-VSV antibody and protein G-agarose, 4 °C; washes up to 300 mM NaCl; remark: listed apart in the source
[8] = target: T2, VSV-Rvs161 (S. cerevisiae); assay: as above

Molecule: GFP-Rvs167 (from UniProt P39743 1-482)
binding (Gyp5-Myc (S. cerevisiae) [1]): binds
binding [2]: binds
binding [3]: binds

B1: VSV-Rvs161 (protein, UniProt P25343 1-265)
chain: MSWEGFKKAINRAGHSVIIKNVDKTIDKEYDMEERRYKVLQRAGEALQKEAKGFLDSLRAVTASQTTIAEVISNLYDDSKYVAGGGYNVGNYYLQCVQDFDSETVKQLDGPLRETVLDPITKFSTYFKEIEEAIKKRDHKKQDFDAAKAKVRRLVDKPAKDASKLPRAEKELSLAKDIFENLNNQLKTELPQLVSLRVPYFDPSFEALIKIQLRFCTDGYTRLAQIQQYLDQQSRDDYANGLLDTKIEELLGQMTSLDICALGIK
binding (Gyp5-Myc (S. cerevisiae) [4]): binds
binding (Gyl1-HA (S. cerevisiae)): binds
binding [5]: binds

binding [6]: no binding
B2: Gyl1 fused with the VN or VC part of Venus YFP (protein, UniProt Q04322 1-720)
chain: MNSNEDIHEERIEVPRTPHQTQPEKDSDRIALRDEISVPEGDEKAYSDEKVEMATTNASSNFGSNESAKDGESIGAFSNPHEALMQSKLREESQSKTILPSDDLSQQLETEESKVEEALKRITSPPLPPRADCIEESASALKSSLPPVLAGNKNDQAPLDRPQLPPRQVVNAETLHLKAPHGNATPSKSPTSAVGNSSSSTPPTLPPRRIEDPLDLAAQKHFLASTFKRNMLFYKSEDNSIKCDLDKNILNLKEDSKKINNNEIPEEVSSFWLKVIGDYQNILINDIETLHFQLSRGIPAAYRLVVWQLVSYAKSKSFDPIYETYLTEMAPFDVQEFENQLKMMDEVPSEYVKRISNVLKAYLLFDPECEFSTDIAYIINMILDVCEEEANAFGLLVRLMKVYGLRLLFLPSASEIDILCYKFDRLVEEFYPEIHNHMVEKGVRSSMFLPGFFTTLFQKKLPTEIQPRIGDMVFLEGIDSIMRILATLLSNSRDHLLKMGFDDMLELLKSGLLDAYIKQNDGTRGDTLLSNECMDKLLQDSMMKVAITPKTMKKYSSEYEEIHRLDNEKEVQYKSITEKNLHLQKHVRKLENDYTSLNREHVTIANELVKNRLNIESVLNENNGYKLQILDLKKKLDSEKKKQVLGVYVPNDLKKDLEETMKKNTQVMDENLKLQDRISELERLIEEIKTANKNGTLFEYSNSKNNPLGAGWSGFKKVFK

B3: GFP-Gvp36 (protein, UniProt P40531 2-326)
chain: SFNAFASSLSKKLQEISTSVSEKTQELPSLAQSTQRMVQERLGQVTDISQLPREYTELEDKVDTIKLIYNHFLGVTAIYENGSYDYPKYINESVNEFSRSVASKLTELTHATSASEAQNILVAPGPIKEPKTLNYALSKVALNSSECLNKMFPTEEQPLASALLQFSDVQAKIAQARIQQDTLIQTKFNKNLRERLSFEIGKADKCRKDVHSMRLRYDVARTNLANNKKPEKEASLRVQMETLEDQFAQVTEDATVCLQEVISHANFSEDLKELAKAQAEYFETSAGLMKEFLSNSFAEEPEAKPEVAEEEKPQTAISMNDEDDA
binding [7]: binds weakly
binding [8]: binds weakly
